We go through 1 substance from PMC12198385.

Sequences of proteins named here, by UniProt entry; tags and fusion partners are left off.
UniProt Q61188: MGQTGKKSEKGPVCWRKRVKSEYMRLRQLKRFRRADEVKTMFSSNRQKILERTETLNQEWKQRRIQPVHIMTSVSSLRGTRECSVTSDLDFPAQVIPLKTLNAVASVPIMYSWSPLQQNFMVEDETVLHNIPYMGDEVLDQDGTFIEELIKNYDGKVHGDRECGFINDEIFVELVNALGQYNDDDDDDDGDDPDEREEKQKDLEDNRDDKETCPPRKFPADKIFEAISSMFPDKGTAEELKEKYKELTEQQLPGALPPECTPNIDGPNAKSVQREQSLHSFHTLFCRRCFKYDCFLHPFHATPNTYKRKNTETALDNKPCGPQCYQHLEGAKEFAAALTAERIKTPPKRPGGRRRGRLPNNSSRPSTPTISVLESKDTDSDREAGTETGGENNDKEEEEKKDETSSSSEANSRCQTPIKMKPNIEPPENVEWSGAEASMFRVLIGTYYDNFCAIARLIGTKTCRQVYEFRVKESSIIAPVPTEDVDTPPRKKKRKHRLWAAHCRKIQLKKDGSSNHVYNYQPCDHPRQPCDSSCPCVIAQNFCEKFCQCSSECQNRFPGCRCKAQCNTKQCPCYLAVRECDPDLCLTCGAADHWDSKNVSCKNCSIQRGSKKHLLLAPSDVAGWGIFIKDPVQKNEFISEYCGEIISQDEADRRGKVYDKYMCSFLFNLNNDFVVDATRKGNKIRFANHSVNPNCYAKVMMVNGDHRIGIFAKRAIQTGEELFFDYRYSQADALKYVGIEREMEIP

The target of this assay is T1, human IκBζ (human) (UniProt Q9BYH8).
T1 sequence: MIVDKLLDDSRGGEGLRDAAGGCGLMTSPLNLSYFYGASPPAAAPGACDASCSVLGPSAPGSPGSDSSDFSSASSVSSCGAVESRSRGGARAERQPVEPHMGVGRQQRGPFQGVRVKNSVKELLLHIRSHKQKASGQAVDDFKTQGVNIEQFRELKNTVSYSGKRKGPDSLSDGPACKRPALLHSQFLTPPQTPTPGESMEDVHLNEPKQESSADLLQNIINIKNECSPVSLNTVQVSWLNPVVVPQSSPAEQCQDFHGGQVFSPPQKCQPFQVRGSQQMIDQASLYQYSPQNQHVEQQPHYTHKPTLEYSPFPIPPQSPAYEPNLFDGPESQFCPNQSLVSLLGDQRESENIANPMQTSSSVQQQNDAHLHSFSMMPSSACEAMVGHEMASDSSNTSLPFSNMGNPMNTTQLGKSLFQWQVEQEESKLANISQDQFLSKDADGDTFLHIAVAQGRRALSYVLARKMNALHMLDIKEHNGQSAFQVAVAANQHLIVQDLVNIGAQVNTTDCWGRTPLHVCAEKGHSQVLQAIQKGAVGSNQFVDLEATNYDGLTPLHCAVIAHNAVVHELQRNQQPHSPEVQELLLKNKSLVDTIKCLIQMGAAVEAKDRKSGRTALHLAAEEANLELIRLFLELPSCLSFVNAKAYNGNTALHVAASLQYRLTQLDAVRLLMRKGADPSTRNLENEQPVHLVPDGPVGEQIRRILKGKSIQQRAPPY
Nature of the assay: co-IP; IκBζ precipitated with an anti-IκBζ antibody from pre-cleared lysates (overnight, 4 °C, protein A/G PLUS agarose) of control and IκBζ-overexpressing B16-F10 cells; immunoblot with HDAC3 or EZH2 antibody.

These are yes or no findings as the source states them, for the method shown. Binding seen in cells or lysates may run through a third protein. Some results given as binding are weak or reduced against the parent protein; the word gives no strength.

EZH2 (from UniProt Q61188 1-746): the binding entry is “binds”.
